Measurements reported in PubChem BioAssay (NCATS).
This is one part of the list. Shown are side measurements of this screen, not its main read-out; they come without a call. The list favours compounds with an active or inconclusive main result. Potencies come from curve fits of mixed quality, noted in brackets.

Assay: qHTS for identification of novel therapeutic agents for treatment of microphthalmiaassociated transcription factor (MiT) renal cell carcinoma (RCC) (AID 1963991)
Conditions: CellTiter-Glo, 48 h; for z-score: stronger effect = lower value
How it was run: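 Three TFE3-fusion RCC lines (UOK109, UOK124, UOK145), 500 cells/well in complete medium, were treated with MIPE 4.0 compounds for 48 hours at 37 C. Viability was by CellTiter-Glo luminescence, normalized to DMSO (100%) and empty wells (0%); curves fitted over 11 concentrations.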

[1] = TFE3-RCC UOK109 viability, measured here: UOK109 Z-AUC
[2] = TFE3-RCC viability, measured here: UOK124 Z-AUC
[3] = TFE3-RCC viability, measured here: UOK124 cell viability
[4] = TFE3-RCC viability, measured here: UOK145 Z-AUC
[5] = TFE3-RCC viability, measured here: UOK145 cell viability

SMILES	z-score [1]	z-score [2]	AC50 [3]	z-score [4]	AC50 [5]
CC(=O)O[C@]1(C(C)=O)CC[C@H]2[C@@H]3C=C(C)C4=CC(=O)CC[C@]4(C)[C@@H]3CC[C@@]21C	-0.524	0.506	33.2 µM [falling, single point]	1.19	6.62 µM [falling, full curve]
C[C@@H]1CC(=O)NN=C1c1ccc(NN=C(C#N)C#N)cc1	0.266	0.0091	23.5 µM [falling, single point]	-0.0592	20.9 µM [falling, partial curve]
CNC(=O)c1ccccc1Sc1ccc2c(C=Cc3ccccn3)n[nH]c2c1	-0.121	-0.739	20.9 µM [falling, partial curve]	0.165	14.8 µM [falling, partial curve, poor fit]
CC(C)C(=O)Oc1ccc(CO)cc1[C@H](CCN(C(C)C)C(C)C)c1ccccc1	0.0109	0.147	14.8 µM [falling, partial curve, poor fit]	-0.231	20.9 µM [falling, partial curve, poor fit]
Nc1ccn([C@@H]2O[C@H](CO)[C@@H](O)[C@H]2O)c(=O)n1	-0.382	-0.0937	0.332 µM [falling, partial curve, poor fit]	-2.07	0.0332 µM [falling, full curve]
COc1cccc2c1C(=O)c1c(O)c3c(c(O)c1C2=O)C[C@@](O)(C(=O)CO)C[C@H]3O[C@H]1C[C@H](N)[C@H](O)[C@H](C)O1	-1.63	-1.84	0.118 µM [falling, full curve]	-0.77	0.372 µM [falling, full curve]
CC(C)c1c(C(=O)Nc2ccccc2)c(-c2ccccc2)c(-c2ccc(F)cc2)n1CC[C@H](O)C[C@@H](O)CC(=O)O	0.25	-0.186	11.8 µM [falling, partial curve]	0.147	26.4 µM [falling, single point]
CC(C)N(CCCNC(=O)Nc1ccc(C(C)(C)C)cc1)C[C@H]1O[C@@H](n2cc(Br)c3c(N)ncnc32)[C@H](O)[C@H]1O	0.215	-0.135	16.6 µM [falling, partial curve]	-0.0539	18.7 µM [falling, partial curve]
C[C@@]12C(=O)OC(=O)[C@@]1(C)C1CCC2O1	-2.09	-1.01	2.96 µM [falling, full curve]	-0.206	4.69 µM [falling, full curve]
CC(=O)NCC(=O)N1[C@H]2CC[C@H]1c1cc(Nc3ncc(C(F)(F)F)c(NC4CCC4)n3)ccc12	-0.15	-0.566	26.4 µM [falling, partial curve]	0.192	18.7 µM [falling, partial curve]
O=C(CCCCCCC(=O)Nc1ccc([C@H]2O[C@@H](CSc3nc(-c4ccccc4)c(-c4ccccc4)o3)C[C@@H](c3ccc(CO)cc3)O2)cc1)NO	0.422	-1.55	26.4 µM [falling, partial curve]	0.253	33.2 µM [falling, single point]
C[C@H](NCc1ccc(OCc2cccc(F)c2)cc1)C(N)=O	-0.688	-0.907	5.9 µM [falling, full curve]	-0.364	9.35 µM [falling, partial curve]
COc1cc([C@@H]2c3cc4c(cc3[C@@H](O[C@@H]3O[C@@H]5CO[C@@H](c6cccs6)O[C@@H]5[C@H](O)[C@@H]3O)[C@H]3COC(=O)[C@H]23)OCO4)cc(OC)c1O	-0.248	-0.914	0.743 µM [falling, full curve]	-1.83	0.418 µM [falling, full curve]
CCN(CC)CCCCNc1nc2cc(Cl)c(Cl)cc2nc1-c1ccc(-c2cccs2)s1	0.0449	-0.432	8.33 µM [falling, full curve]	0.101	33.2 µM [falling, single point]
CC1(C)S[C@H]2[C@H](NC(=O)[C@@H](N)c3ccc(O)cc3)C(=O)N2[C@@H]1C(=O)O	-2.4	0.355	3.72 µM [falling, full curve]	0.388	2.35 µM [falling, full curve]

Complete entries, looked up by structure.
`CC(=O)O[C@]1(C(C)=O)CC[C@H]2[C@@H]3C=C(C)C4=CC(=O)CC[C@]4(C)[C@@H]3CC[C@@]21C` in the list: z-score [1]: -0.524; z-score [2]: 0.506; AC50 [3]: 33.2 µM [falling, single point]; z-score [4]: 1.19; AC50 [5]: 6.62 µM [falling, full curve]
`C[C@@]12C(=O)OC(=O)[C@@]1(C)C1CCC2O1` in the list: z-score [1]: -2.09; z-score [2]: -1.01; AC50 [3]: 2.96 µM [falling, full curve]; z-score [4]: -0.206; AC50 [5]: 4.69 µM [falling, full curve]
